Experimental data from patent US20190309066A1, “COMBINATION THERAPY FOR THE TREATMENT OF SOLID AND HEMATOLOGICAL CANCERS” (Arch Oncology, Inc., priority 2017, published 2019).
No constants are given. Whether binding was seen depends on the method and setting. Some binding calls cover weakened binding; strength is not graded here.

The chains behind the UniProt entries cited, without tags or fusion partners. Where a name states a change or a piece, a line headed by the entry shows the natural chain unless it says otherwise.
UniProt Q08722: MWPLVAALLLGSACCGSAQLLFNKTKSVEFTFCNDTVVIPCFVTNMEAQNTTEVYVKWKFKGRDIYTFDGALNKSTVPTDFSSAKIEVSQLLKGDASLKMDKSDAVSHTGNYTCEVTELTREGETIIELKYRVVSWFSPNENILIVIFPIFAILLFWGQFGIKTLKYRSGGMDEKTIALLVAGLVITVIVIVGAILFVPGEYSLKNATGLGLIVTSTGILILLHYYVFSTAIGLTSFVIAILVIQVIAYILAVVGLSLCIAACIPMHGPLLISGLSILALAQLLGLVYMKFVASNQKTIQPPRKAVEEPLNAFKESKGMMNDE

Legend:
[1] = molecular target: human CD47 expressed on cells (human) (UniProt Q08722); assay: flow cytometry, human RBCs
[2] = molecular target: human CD47 expressed on cells (human) (UniProt Q08722); assay: cell ELISA, OV10 hCD47 cells
[3] = molecular target: human CD47 expressed on cells (human) (UniProt Q08722); assay: flow cytometry on freshly isolated human RBCs, FITC-labelled donkey anti-human antibody, MFI
[4] = molecular target: human CD47 expressed on cells (human) (UniProt Q08722); assay: cell-based ELISA on OV10 cells expressing human CD47 (OV10 hCD47), HRP-labelled secondary antibody, OD 450

Binder	binding [1]	binding [2]	binding [3]	binding [4]
VLX8hum_06 IgG2 (antibody, V domains shown) VH: QVQLVQSGAEVKKPGASVKVSCKASGYSFTNYYIHWVRQAPGQGLEWMGYIDPLNGDTTYNQKFKGRVTMTRDTSTSTVYMELSSLRSEDTAVYYCARGGKRAMDYWGQGTLVTVSS VL: DIQMTQSPSSLSASVGDRVTITCRASQSISNYLNWYQQKPGKAPKLLIYYTSRLYSGVPSRFSGSGSGTDFTLTISSLQPEDFATYYCQQGNTLPWTFGQGTKVEIKR	binds	binds	binds	binds
VLX8hum_07 IgG2 (antibody, V domains shown) VH: QVQLVQSGAEVKKPGSSVKVSCKASGYSFTNYYIHWVRQAPGQGLEWMGYIDPLNGDTTYNQKFKGRVTITADESTSTAYMELSSLRSEDTAVYYCARGGKRAMDYWGQGTLVTVSS VL: DIQMTQSPSSLSASVGDRVTITCRASQSISNYLNWYQQKPGKAPKLLIYYTSRLYSGVPSRFSGSGSGTDFTLTISSLQPEDFATYYCQQGNTLPWTFGQGTKVEIKR	binds	binds	binds	binds

The remaining lines, values ahead:

binding [1]	binding [2]	binding [3]	binding [4]	Binder
binds	binds	binds	binds	VLX8hum_09 IgG2 (antibody, V domains shown) VH: QVQLVQSGAEVKKPGSSVKVSCKASGYSFTNYYIHWVRQAPGQGLEWMGYIDPLNGDTTYAQKFQGRVTITADESTSTAYMELSSLRSEDTAVYYCARGGKRAMDYWGQGTLVTVSS VL: DIQMTQSPSSLSASVGDRVTITCRASQSISNYLNWYQQKPGKAPKLLIYYTSRLYSGVPSRFSGSGSGTDFTLTISSLQPEDFATYYCQQGNTLPWTFGQGTKVEIKR
binds	binds	binds	binds	VLX8hum_08 IgG2 (antibody, V domains shown) VH: EVQLVQSGAEVKKPGESLKISCKGSGYSFTNYYIHWVRQMPGKGLEWMGYIDPLNGDTTYNQKFKGQVTISADKSISTAYLQWSSLKASDTAMYYCARGGKRAMDYWGQGTLVTVSS VL: DIQMTQSPSSLSASVGDRVTITCRASQSISNYLNWYQQKPGKAPKLLIYYTSRLYSGVPSRFSGSGSGTDFTLTISSLQPEDFATYYCQQGNTLPWTFGQGTKVEIKR
